Experiment [1] has as its target soluble human RON protein (R&D Systems, catalog 1947) (human) (UniProt Q04912). The experiment can be described thus: ELISA: serial dilutions of MSP on plate-coated soluble human RON.
In experiment [2] the target is soluble cynomolgus (Macaca fascicularis) RON protein (cynomolgus (Macaca fascicularis)). Put plainly: ELISA: serial dilutions of MSP on plate-coated soluble cyno RON.

Sequences of proteins named here, by UniProt entry; tags and fusion partners are left off. A change or cut given only in a name is not applied to a line headed by its entry. Residues count along the entry.
UniProt Q04912: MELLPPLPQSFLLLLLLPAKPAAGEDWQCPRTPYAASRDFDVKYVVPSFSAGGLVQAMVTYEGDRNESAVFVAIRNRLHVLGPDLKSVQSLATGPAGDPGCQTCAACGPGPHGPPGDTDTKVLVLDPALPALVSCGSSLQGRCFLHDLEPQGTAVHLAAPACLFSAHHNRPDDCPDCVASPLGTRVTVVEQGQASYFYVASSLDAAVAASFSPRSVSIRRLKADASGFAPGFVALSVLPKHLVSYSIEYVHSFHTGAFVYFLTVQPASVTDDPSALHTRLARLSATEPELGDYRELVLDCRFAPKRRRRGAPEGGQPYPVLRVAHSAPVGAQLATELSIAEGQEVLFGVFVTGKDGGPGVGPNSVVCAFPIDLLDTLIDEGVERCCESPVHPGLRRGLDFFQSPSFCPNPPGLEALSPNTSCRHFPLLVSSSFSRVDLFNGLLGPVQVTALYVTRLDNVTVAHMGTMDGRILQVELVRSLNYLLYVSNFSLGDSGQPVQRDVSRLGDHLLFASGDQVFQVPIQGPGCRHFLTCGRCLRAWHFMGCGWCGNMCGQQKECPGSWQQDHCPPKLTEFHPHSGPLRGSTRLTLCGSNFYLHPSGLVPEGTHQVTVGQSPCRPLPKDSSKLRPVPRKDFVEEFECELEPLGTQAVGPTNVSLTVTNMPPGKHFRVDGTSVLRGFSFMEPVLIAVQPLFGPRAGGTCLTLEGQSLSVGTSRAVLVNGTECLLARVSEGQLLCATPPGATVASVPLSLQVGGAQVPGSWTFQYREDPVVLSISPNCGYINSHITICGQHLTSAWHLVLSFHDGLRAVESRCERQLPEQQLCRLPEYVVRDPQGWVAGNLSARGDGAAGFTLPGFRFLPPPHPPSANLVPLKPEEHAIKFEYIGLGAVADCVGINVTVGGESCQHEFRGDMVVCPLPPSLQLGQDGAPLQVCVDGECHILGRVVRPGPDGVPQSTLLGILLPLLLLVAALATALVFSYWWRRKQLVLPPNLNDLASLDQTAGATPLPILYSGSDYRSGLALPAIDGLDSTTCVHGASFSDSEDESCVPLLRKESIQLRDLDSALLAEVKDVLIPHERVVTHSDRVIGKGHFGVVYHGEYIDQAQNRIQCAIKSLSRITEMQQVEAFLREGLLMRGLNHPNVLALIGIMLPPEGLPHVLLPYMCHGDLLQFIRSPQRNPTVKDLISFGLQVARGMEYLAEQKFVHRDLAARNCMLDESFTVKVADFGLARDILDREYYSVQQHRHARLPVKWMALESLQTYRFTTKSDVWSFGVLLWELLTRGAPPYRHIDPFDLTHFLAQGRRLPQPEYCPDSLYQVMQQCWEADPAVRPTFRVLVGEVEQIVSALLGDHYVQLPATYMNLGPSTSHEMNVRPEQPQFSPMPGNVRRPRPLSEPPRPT
UniProt P26927, residues 19-711: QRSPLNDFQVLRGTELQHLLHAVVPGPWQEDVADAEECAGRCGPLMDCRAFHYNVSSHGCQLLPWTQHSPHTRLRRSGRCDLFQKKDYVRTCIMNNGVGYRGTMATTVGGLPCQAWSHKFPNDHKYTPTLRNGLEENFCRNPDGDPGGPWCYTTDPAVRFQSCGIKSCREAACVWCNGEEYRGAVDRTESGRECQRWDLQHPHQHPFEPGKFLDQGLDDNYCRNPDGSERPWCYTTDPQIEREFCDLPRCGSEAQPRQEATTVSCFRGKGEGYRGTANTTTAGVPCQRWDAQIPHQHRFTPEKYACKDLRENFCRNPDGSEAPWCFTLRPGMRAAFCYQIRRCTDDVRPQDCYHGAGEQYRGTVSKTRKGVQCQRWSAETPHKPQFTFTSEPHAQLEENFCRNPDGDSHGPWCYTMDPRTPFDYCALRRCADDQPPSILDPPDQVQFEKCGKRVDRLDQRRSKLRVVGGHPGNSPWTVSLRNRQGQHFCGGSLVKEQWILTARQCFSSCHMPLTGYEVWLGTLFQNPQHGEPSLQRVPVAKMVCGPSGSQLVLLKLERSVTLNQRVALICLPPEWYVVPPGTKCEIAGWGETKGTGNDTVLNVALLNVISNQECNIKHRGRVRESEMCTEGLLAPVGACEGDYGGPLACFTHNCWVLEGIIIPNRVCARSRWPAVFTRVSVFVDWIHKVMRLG

Results are given in words; binding and its absence hold for the method and conditions named. Some entries that bind do so weakly or less than the wild type.

On to “human macrophage stimulating protein (MSP) (R&D Systems cat. #4306-MS) (from UniProt P26927 19-711) (ligand)”, for which the binding entry in experiment [1] and in experiment [2] was “binds” in each case.
